Laboratory results reported in patent US9345667B2, “Particles having hydrophobic material therein” (Australian Nuclear Science and Technology Organisation, priority 2005, dated 2016).

Key:
[1] = Encapsulation efficiency of SB-35 in silica microparticles, synthesis parameter studies (method not given); conditions: for E.E. of SB-35: typical synthesis, 0.600 g Tween 61
[2] = FTIR determination of limonene leached into dodecane; conditions: for encapsulation efficiency of limonene: leached into dodecane

Compound | encapsulation efficiency of SB-35 ([1]; 0.714 mL limonene) [%] | encapsulation efficiency of SB-35 ([1]; 1.428 mL limonene) [%] | encapsulation efficiency ([1]; 4 mL methanol added into the sol-gel solution) [%] | encapsulation efficiency ([1]; 10 mL methanol added into the sol-gel solution) [%] | E.E. of SB-35 ([1]; ageing time 5 min.) [%] | E.E. of SB-35 ([1]; ageing time 10 min) [%] | E.E. of SB-35 ([1]; ageing time 20 min) [%] | E.E. of SB-35 ([1]; ageing time 40 min) [%] | E.E. of SB-35 ([1]; methanol evaporation time 0.5 hr.) [%] | E.E. of SB-35 ([1]; methanol evaporation time 1 hr.) [%] | E.E. of SB-35 ([1]; methanol evaporation time 1.5 hr.) [%] | E.E. of SB-35 ([1]; without methanol evaporation) [%] | encapsulation efficiency of limonene ([2]; unwashed solid, FTIR 797 cm^-1 band) [wt. %] | limonene solid content with respect to silica ([2]; washed solid) [wt %] | encapsulation efficiency of limonene ([2]; washed solid, FTIR 888 cm^-1 band) [%]
CCCCNc1ccc(NCCCC)c2c1C(=O)c1ccccc1C2=O [SB-35, Solvent Blue 35] | 38 | 31 | 22.6 | 1.6 | 37.2 | 44.7 | 34.5 | 33.4 | 36.0 | 36.5 | 38.7 | 36.7 |  |  | 
C=C(C)C1CC=C(C)CC1 (stereo not drawn) [limonene] |  |  |  |  |  |  |  |  |  |  |  |  | 19 | 1 | 5
